The test addresses Full length His-CopD (Chlamydia pneumoniae CWL029) (UniProt Q9Z798). Description: SEC; His-CopD and LcrH_1-S-tag, size exclusion chromatography in the presence of 0.1% Triton X-100; data not shown; both purified. Background: Size exclusion chromatography separates by hydrodynamic size, large species first.

No constants are given. Whether binding was seen depends on the method and setting. Some results given as binding are weak or reduced against the parent protein; the word gives no strength. Where a sequence is shown, tags or fusion partners need not be part of it.

B1: Full length His-CopD (natural protein)
chain: MTSGVSGSSSQDPTLAAQLAQSSQKAGNAQSGHDTKNVTKQGAQAEVAAGGFEDLIQDASAQSTGKKEATSSTTKSSKGEKSEKSGKSKSSTSVASASETATAQAVQGPKGLRQNNYDSPSLPTPEAQTINGIVLKKGMGTLALLGLVMTLMANAAGESWKASFQSQNQAIRSQVESAPAIGEAIKRQANHQASATEAQAKQSLISGIVNIVGFTVSVGAGIFSAAKGATSALKSASFAKETGASAAGGAASKALTSASSSVQQTMASTAKAATTAASSAGSAATKAAANLTDDMAAAASKMASDGASKASGGLFGEVLNKPNWSEKVSRGMNVVKTQGARVASFAGNALSSSMQMSQLMHGLTAAVEGLSAGQTGIEVAHHQRLAGQAEAQAEVLKQMSSVYGQQAGQAGQLQEQAMQSFNTALQTLQNIADSQTQTTSAIFN
notes: CopD (Cpn0808), Chlamydia pneumoniae CWL029, 444 amino acids (44.5 kDa); Eluted from SEC as decamer, tetramer and monomer; also called Cpn0808; source: E. coli Rosetta pLysS, co-expressed with LcrH_1-S-tag (pET-DUET), purified (Ni-NTA); not shown: 6×His, N-terminal, kept
Consider B1, for which the binding entry is “binds”.

These data come from paper PMC4068993, “Chlamydia pneumoniae CopD Translocator Protein Plays a Critical Role in Type III Secretion (T3S) and Infection” (PLoS ONE, 2014).
